Values quoted from earlier work, collected in patent US11155539B2, “4-pyridinylmethyl-morpholine derivatives and the use thereof as medicament” (Boehringer Ingelheim International GmbH, priority 2018, dated 2021).
Some results were stated once for a whole list of compounds, not compound by compound. Some ranges recur; such a range may be that of the whole group of compounds.

Amino acid sequences for entries named in this document (tags omitted).
UniProt Q9UQD0, whole entry: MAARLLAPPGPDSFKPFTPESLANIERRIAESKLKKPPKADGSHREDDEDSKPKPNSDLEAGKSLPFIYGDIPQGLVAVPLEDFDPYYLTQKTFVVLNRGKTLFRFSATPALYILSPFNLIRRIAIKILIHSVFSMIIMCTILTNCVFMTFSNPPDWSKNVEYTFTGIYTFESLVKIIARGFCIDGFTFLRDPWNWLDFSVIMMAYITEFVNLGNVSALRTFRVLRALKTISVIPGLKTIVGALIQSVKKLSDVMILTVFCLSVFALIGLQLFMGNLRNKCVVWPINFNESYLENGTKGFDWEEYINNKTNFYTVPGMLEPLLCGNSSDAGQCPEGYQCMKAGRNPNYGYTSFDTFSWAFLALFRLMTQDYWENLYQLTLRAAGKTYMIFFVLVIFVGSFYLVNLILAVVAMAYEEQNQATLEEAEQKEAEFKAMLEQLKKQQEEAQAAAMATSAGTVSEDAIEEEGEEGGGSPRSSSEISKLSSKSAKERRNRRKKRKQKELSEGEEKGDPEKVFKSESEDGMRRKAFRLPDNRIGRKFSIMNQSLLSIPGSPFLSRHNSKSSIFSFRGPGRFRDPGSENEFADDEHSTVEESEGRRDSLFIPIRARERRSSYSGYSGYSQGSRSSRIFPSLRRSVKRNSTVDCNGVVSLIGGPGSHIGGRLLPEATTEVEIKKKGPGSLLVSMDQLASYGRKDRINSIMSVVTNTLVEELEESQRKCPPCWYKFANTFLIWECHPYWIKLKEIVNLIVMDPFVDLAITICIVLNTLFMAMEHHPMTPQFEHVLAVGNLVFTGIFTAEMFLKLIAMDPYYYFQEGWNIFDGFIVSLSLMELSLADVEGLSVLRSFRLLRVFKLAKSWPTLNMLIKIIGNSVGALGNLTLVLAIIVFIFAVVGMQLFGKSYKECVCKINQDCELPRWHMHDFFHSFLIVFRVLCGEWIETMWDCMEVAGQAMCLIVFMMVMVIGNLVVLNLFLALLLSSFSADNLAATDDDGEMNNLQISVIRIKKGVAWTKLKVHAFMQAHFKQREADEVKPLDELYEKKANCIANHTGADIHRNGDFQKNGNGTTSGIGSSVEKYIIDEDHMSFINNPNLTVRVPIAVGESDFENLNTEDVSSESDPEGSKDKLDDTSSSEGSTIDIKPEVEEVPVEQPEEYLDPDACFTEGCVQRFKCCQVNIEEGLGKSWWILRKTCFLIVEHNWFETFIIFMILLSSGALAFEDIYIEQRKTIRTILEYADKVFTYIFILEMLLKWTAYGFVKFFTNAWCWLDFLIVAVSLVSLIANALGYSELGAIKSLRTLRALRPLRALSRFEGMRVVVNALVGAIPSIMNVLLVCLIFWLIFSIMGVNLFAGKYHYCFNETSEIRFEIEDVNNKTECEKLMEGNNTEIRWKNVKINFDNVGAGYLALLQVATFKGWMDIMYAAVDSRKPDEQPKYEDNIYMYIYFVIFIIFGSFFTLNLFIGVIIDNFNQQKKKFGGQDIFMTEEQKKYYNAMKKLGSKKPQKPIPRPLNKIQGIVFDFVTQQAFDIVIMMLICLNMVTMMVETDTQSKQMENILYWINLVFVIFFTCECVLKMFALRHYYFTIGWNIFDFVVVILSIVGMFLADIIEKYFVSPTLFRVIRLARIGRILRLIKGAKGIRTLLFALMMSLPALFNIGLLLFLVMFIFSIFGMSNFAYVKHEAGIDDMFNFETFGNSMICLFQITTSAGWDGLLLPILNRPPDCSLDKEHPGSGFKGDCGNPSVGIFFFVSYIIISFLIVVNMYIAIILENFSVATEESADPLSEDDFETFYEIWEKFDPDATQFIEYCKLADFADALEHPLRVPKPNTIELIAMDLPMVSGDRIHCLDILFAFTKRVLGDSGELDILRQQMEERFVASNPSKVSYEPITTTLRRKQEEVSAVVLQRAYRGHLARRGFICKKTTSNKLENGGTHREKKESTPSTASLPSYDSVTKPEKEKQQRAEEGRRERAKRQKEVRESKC

Biological target: Nav1.6 (Homo sapiens, UniProt Q9UQD0)
Conditions: reported in WO2015/130905; cited from earlier work

Row | SMILES | Nav 1.6 blockage [µM]
1 | CCNC(=O)C1CN(Cc2cccc(Oc3ccccc3)c2)CCO1 (stereo not drawn) [Example 100 of WO2015/130905, reference compound] | 1 to 5
2 | O=C(NCc1ccccn1)C1CN(Cc2cccc(Oc3ccccc3)c2)CCO1 (stereo not drawn) [Example 105 of WO2015/130905, reference compound] | 1 to 5
3 | COCCNC(=O)C1CN(Cc2cccc(Oc3ccccc3)c2)CCO1 (stereo not drawn) [Example 107 of WO2015/130905, reference compound] | 1 to 5
